Test results reported in PubChem BioAssay AID1671190 (National Center for Advancing Translational Sciences (NCATS), 2021).
Out of some 580,000 compounds screened, about 6,100 (1.1%) were called active. Inconclusive results, whose numbers are uncertain, are shown with a selection of clear calls. The call rests on the fitted dose curve; in most records, active means well fitted inhibition curve with a large enough effect; inconclusive means small, poorly fitted or top-dose-only effect, or another doubt; inactive means no such curve, though single readings can be large or run the other way. Potencies beside an inconclusive call are fits to weak or partial responses and may not hold up.

By UniProt entry, the sequences of proteins in these tests, tags left out. Where a name states a change or a piece, a line headed by the entry shows the natural chain unless it says otherwise.
UniProt P18054: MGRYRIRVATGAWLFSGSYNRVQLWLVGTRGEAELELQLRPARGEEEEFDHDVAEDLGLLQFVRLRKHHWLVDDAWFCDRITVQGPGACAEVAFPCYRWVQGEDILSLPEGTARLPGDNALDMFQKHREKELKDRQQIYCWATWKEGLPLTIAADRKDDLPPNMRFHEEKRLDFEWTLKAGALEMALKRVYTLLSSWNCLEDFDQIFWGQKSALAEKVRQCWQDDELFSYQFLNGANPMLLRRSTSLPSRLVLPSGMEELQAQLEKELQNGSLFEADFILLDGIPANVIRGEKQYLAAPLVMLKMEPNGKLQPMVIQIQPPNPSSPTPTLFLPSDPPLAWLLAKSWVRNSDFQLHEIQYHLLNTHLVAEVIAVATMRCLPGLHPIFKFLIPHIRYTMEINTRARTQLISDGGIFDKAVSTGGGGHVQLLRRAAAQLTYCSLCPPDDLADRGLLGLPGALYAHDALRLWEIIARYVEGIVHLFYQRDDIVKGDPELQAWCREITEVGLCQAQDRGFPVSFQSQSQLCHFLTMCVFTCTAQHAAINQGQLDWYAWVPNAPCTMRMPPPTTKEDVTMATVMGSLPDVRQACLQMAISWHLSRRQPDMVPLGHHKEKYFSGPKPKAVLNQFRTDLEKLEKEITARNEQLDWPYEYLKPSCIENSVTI

Target: Polyunsaturated fatty acid lipoxygenase ALOX12 (Homo sapiens) (UniProt P18054)
Assay: Primary qHTS assay for inhibitors of human arachidonate 12S-lipoxygenase (ALOX12): Round 2
Conditions: purified 12hLO, xylenol orange hydroperoxide absorbance; series mostly up to 108 µM
Outline: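 Hydroperoxide product was detected by ferrous iron/xylenol orange as the 573 to 405 nm absorbance ratio. Arachidonic acid at 40 uM (final) was turned over for 30 min at room temperature by 150 nM human 12hLO, pH 7.0 Hepes buffer, after 15 min compound preincubation.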
Potency means the concentration at half of the fitted maximal effect.

Structure (SMILES)	Potency
COc1ccc(CC(=O)N/N=C\c2cc(Br)c(O)c(Br)c2)cc1	inactive
O=c1[nH]c(=S)[nH]c2c1C(C1CCCCC1)OC(C1CCCCC1)C2 (stereo not drawn)	inconclusive: 35.5 µM [inhibitor, partial curve, poor fit]
CCc1nnc(NC(=O)CSc2nnc(Cc3ccccc3)n2-c2ccccc2)s1	inactive
CC(OCC(O)CN1CCN(S(=O)(=O)c2ccc(Cl)cc2)CC1)c1ccc(Cl)cc1 (stereo not drawn)	inconclusive: 44.7 µM [inhibitor, partial curve, poor fit]
Cc1ccc(Cl)cc1NC(=O)N1CCCC(Cn2cnc3cccnc32)C1 (stereo not drawn)	inactive
Cn1cc(Cl)c(C(=O)OCC(=O)Nc2cccc(Cl)c2)n1	inconclusive: 126 µM [inhibitor, single point]
Fc1cccc(CN2CCSCC2)c1	inconclusive: 0.224 µM [inhibitor, full curve, poor fit]
COC(=O)CCCCC(=O)C1C(=O)CC(C)(C)C(C(=O)OC)C1=O (stereo not drawn)	inconclusive: 39.8 µM [inhibitor, single point]
CCc1ccc(S(=O)(=O)Nc2ccc3c(c2)sc(=O)n3C)cc1	inconclusive: 44.7 µM [inhibitor, partial curve, poor fit]
CC(C)CN(C(=O)CN(C)C(=O)Cc1cccc2ccccc12)c1c(N)n(CC(C)C)c(=O)[nH]c1=O	inconclusive: 50.1 µM [inhibitor, single point]
Cc1ccccc1C(=O)Oc1cccc2c(O)cccc12	inconclusive: 50.1 µM [inhibitor, partial curve, poor fit]
N#Cc1c(/N=C/c2c(F)cccc2F)sc2c1CCCC2	inconclusive: 15.8 µM [inhibitor, full curve]
CCOc1cc(/C=C2/SC(=S)N(CC(=O)O)C2=O)ccc1OC(=O)c1cccs1	inconclusive: 112 µM [inhibitor, single point]
CC1=C(C(=O)Nc2ccccc2)C(c2sccc2C)n2nc(-c3ccccc3)nc2N1 (stereo not drawn)	inactive
CC1CCN(CCCCOc2ccccc2-c2ccccc2)CC1	inconclusive: 2.24 µM [inhibitor, full curve, poor fit]
O=C(N/C(=C/c1ccco1)C(=O)N1CCCCCC1)c1ccccc1	inactive
Cc1cccc(N2CCN(CCCNC(=O)Cn3ncc4c([nH]c5ccccc54)c3=O)CC2C)c1 (stereo not drawn)	inconclusive: 79.4 µM [inhibitor, partial curve, poor fit]
Cn1ccnc1C(NC(=O)Cc1ccc(-c2ccccc2)cc1)c1ccc(Cl)cc1 (stereo not drawn)	inconclusive: 0.224 µM [inhibitor, full curve, poor fit]
COc1ccc2cc(C(=O)NCCCN(C)C)[nH]c2c1	inconclusive: 50.1 µM [inhibitor, partial curve, poor fit]
O=C(C[n+]1cccc2ccccc21)c1ccccc1	inactive
Cc1ccc(NC(=O)CNCc2ccccc2)cc1Br	inactive
CCC/C=C/c1ccc(CN2C(C)C(=O)N(Cc3cn(CCC4OCCCO4)nn3)CCS2(=O)=O)cc1 (stereo not drawn)	inconclusive: 39.8 µM [inhibitor, single point]

Structure (SMILES)	Potency
O=C(Cc1ccsc1)NC1CCCN(c2cc(-c3ccccc3)[nH]n2)C1 (stereo not drawn)	inactive
COc1ccc(NC(=S)NCCCN2CCCC2=O)c(OC)c1	inactive
c1ncc(CN2CCn3c(nnc3C3CCCNC3)C2)s1 (stereo not drawn)	inconclusive: 7.94 µM [inhibitor, partial curve]
CCOCCCn1c(=N)c(C(=O)NC2CCCCC2)cc2c(=O)n3ccccc3nc21	inconclusive: 89.1 µM [inhibitor, partial curve, poor fit]
COc1ccc(C(=O)c2ccc(C)cc2)c(O)c1	inconclusive: 0.447 µM [inhibitor, full curve, poor fit]
CCc1nc2sc(C(C)=O)c(N)c2cc1C	inconclusive: 63.1 µM [inhibitor, partial curve, poor fit]
Cc1ccc(-n2nnc(C(=O)NCc3ccccn3)c2C)cc1F	inactive
O=[N+]([O-])c1cc(CS(=O)(=O)Oc2ccc(Cl)cc2)c(O)c([N+](=O)[O-])c1	inconclusive: 79.4 µM [inhibitor, partial curve, poor fit]
CC(OC(=O)c1cc[n+]([O-])cc1)C(=O)Nc1cccc2ccccc12 (stereo not drawn)	inconclusive: 63.1 µM [inhibitor, partial curve, poor fit]
Cn1c(-c2c(N)n(CCc3ccccc3)c3nc4ccccc4nc23)nc2ccccc21	inconclusive: 28.2 µM [inhibitor, partial curve]
COc1ccc(C2c3ccc(O)cc3Oc3ncn4nc(-c5ccccc5Cl)nc4c32)cc1OC (stereo not drawn)	inactive
COc1ccc(C)cc1NC(=O)Cn1c(N(C)Cc2ccccc2)nc(C)cc1=O	inactive
Cc1ccc(OCc2nnc(SCC(=O)Nc3cc(C)on3)n2C)cc1	inconclusive: 70.8 µM [inhibitor, partial curve, poor fit]
CN(C)c1ccc(-c2ccnc(N[C@H]3CO[C@H]4[C@@H]3OC[C@@H]4NC(=O)NCc3ccccc3)n2)cc1	inconclusive: 22.4 µM [inhibitor, full curve, poor fit]
N#C/C(=C\c1ccc(N2CCOCC2)o1)C(=O)NCC1CCCO1 (stereo not drawn)	inactive
O=C(Cn1ccn2nc(-c3ccc4c(c3)OCO4)cc2c1=O)NCc1ccco1	inconclusive: 8.91 µM [inhibitor, full curve, poor fit]
COc1ccccc1CNC(=O)CN1C(=O)c2cccc(N)c2C1=O	inconclusive: 5.01 µM [inhibitor, full curve, poor fit]
CCOC(=O)c1c(NC(=O)CSc2ncccn2)sc(C(=O)NC)c1C	inconclusive: 39.8 µM [inhibitor, partial curve, poor fit]
CCC1(c2ccc(Cl)cc2)NC(=S)N(c2ccccc2)N1 (stereo not drawn)	active: 15.8 µM
Brc1ccc2nc(-c3ccccc3)c(Cc3ccsc3)n2c1	inconclusive: 2.82 µM [inhibitor, full curve, poor fit]
CC(C)N(C(=O)[C@H]1C[C@H](CC(=O)NC(C)(C)C)C(=O)N2CCc3c([nH]c4cc(-c5ccco5)ccc34)[C@]12C)C(C)C	inconclusive: 44.7 µM [inhibitor, partial curve, poor fit]

3 of the compounds above, with each value named.
CC(OC(=O)c1cc[n+]([O-])cc1)C(=O)Nc1cccc2ccccc12 (stereo not drawn)
  Potency: inconclusive: 63.1 µM [inhibitor, partial curve, poor fit]
COc1ccc(C2c3ccc(O)cc3Oc3ncn4nc(-c5ccccc5Cl)nc4c32)cc1OC (stereo not drawn)
  Potency: inactive
CCOC(=O)c1c(NC(=O)CSc2ncccn2)sc(C(=O)NC)c1C
  Potency: inconclusive: 39.8 µM [inhibitor, partial curve, poor fit]
